In paper PMC6197226 one finds binding data, which are given here for one molecule.

Assay [1] deals with p62 ZZ domain (aa 120-190) D129K (human) (UniProt Q13501). In words: NMR titration; 1H,15N HSQC; peptide titrated into 0.1 mM uniformly 15N-labeled WT or mutated p62ZZ; 298 K; 20 mM Tris-HCl pH 7.0, 100 mM NaCl, 5 mM DTT, 8% D2O; both purified.
In assay [2] the target is p62 ZZ domain (aa 120-190) D147K (human) (UniProt Q13501). The assay is described as above.

These are yes or no findings as the source states them, for the method shown.

Take KEKKECRRDHR [K100…110 (p62_(100-110)) peptide]: the binding entry in assay [1] and in assay [2] was “no binding” in each case.
